Results are given in words; binding and its absence hold for the method and conditions named. Binding seen in cells or lysates may run through a third protein. A result given as binding can be weak or reduced; the word gives no strength. For some assays here: Sequences can lack the tags named with a protein.
T1: IFT25-HA-GFP (C. reinhardtii) (UniProt B8LIX8)
T1 sequence: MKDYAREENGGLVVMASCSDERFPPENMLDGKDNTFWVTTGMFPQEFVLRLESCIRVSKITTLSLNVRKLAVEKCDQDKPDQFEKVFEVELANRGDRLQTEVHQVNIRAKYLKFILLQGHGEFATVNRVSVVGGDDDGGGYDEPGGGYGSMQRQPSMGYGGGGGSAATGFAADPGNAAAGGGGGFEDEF

B1: IFT43 (protein, UniProt A8HYP5 1-272)
chain: MDDDAPKAAPKAGRRAARTANTWGDDSAAPPEPQKGGFGLDSGFGGGGGSPRGNAFGAEDSAPPKHVASTNFAPSGDDEPAPAPSRQRTGDASGDRPSRGGAPPSRPPPAEILGEDSKKFVGVSRRKQEQLARGDDEVSRKNLKYETLTAGVDGIMEIPELEEEGREDLSNIVAEAPKVRTNKVQGMEELEEDMHYKLPAMDDRDIDLSLLTAVLCSSEQVAEAEDPWDPDIVLTEVASAINAEREKAEGGEAPDDMGGMRDEQGMPMPIKL

Columns and labels:
Test in all cases: co-IP
[1] = molecular target: T1, IFT25-HA-GFP (C. reinhardtii)
[2] = molecular target: IFT27^S79L-HA-GFP (C. reinhardtii)
[3] = molecular target: IFT27-HA-GFP (C. reinhardtii)
[4] = molecular target: IFT27^S30N-HA-GFP (C. reinhardtii)

| Molecule | binding [1] | binding [2] | binding [3] | binding [4] |
| --- | --- | --- | --- | --- |
| IFT70 (C. reinhardtii (endogenous in cilia)) | binds | – | – | – |
| IFT38 (C. reinhardtii (endogenous in cilia)) | binds | – | – | – |
| B1 | – | binds | binds | binds |

Reference: publication doi:10.1101/2022.02.06.479262
